Source: article PMC11053110
No constants are given. Whether binding was seen depends on the method and setting. In cells and extracts the contact can be indirect. Some entries that bind do so weakly or less than the wild type. For part of these data: Where a sequence is shown, tags or fusion partners need not be part of it.

Chains of the proteins cited; added tags and fusions are not shown.
UniProt Q9GZT9: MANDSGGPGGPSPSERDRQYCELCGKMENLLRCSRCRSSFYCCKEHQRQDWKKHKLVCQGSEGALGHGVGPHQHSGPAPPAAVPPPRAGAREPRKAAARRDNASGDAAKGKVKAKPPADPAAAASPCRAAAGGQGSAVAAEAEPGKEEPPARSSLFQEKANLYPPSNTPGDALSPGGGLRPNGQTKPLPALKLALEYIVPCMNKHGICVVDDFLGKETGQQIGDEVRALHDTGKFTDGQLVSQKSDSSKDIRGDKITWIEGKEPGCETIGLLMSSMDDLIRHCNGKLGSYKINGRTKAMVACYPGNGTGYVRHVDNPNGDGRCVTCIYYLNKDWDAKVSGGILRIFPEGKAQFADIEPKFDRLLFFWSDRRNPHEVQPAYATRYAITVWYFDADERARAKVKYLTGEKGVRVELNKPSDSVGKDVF
UniProt Q96KS0: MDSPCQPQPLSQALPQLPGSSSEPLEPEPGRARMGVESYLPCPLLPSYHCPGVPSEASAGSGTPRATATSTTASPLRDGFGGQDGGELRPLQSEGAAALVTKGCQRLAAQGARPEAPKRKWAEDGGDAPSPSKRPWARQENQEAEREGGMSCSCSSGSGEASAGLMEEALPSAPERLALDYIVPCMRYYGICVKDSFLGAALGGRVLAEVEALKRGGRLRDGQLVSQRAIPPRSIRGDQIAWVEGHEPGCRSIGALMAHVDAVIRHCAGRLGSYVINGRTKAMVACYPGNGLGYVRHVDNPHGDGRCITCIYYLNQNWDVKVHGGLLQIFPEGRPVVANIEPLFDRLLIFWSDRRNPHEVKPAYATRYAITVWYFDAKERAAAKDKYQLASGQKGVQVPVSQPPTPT
UniProt Q9H6Z9: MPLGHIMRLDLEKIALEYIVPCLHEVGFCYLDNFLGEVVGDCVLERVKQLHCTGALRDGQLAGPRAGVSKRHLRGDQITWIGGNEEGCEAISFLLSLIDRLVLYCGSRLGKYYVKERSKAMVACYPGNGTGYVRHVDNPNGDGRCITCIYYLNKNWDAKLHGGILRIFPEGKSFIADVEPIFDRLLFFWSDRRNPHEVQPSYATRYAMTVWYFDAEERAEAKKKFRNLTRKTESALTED

How the values were obtained:
[1] = target: T1, Flag-IRF3 (WT: full length) (human) (UniProt Q14653); experiment: co-IP
T1 sequence: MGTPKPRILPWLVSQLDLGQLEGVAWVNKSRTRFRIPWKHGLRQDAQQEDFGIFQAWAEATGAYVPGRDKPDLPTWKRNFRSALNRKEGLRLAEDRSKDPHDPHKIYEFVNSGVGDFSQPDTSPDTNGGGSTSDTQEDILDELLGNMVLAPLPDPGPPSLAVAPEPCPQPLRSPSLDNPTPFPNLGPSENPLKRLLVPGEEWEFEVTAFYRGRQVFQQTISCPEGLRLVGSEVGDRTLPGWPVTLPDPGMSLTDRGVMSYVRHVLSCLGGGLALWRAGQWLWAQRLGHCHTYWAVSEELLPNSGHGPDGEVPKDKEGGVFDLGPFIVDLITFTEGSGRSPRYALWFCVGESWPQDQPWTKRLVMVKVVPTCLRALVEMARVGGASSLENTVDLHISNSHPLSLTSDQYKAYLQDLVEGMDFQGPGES

Myc-IRF3 (human) = target: T2, Myc-IRF3 (human) (UniProt Q14653); experiment: co-IP
T2 sequence: T1 sequence

[2] = target: T3, endogenous IRF3 (human (endogenous in H1299 and THP-1)) (UniProt Q14653); experiment: proximity ligation
T3 sequence: T1 sequence

[3] = target: Flag-EGLN1 (WT: full length) (human) (UniProt Q9GZT9); experiment: co-IP
HA-EGLN1 (human) = HA-EGLN1 (human) (UniProt Q9GZT9); experiment: co-IP
[4] = target: ectopically expressed EGLN1 (Supplementary Fig. 9c-e) (human) (UniProt Q9GZT9); experiment: co-IP
[5] = target: ectopically expressed EGLN2 (UniProt Q96KS0); experiment: co-IP
[6] = target: ectopically expressed EGLN3 (UniProt Q9H6Z9); experiment: co-IP
[7] = target: endogenous EGLN1 (human (endogenous in H1299)) (UniProt Q9GZT9); experiment: co-IP

With “HA-EGLN1 (from UniProt Q9GZT9 1-426) (enzyme)” the binding [1] was “binds” and the binding (Myc-IRF3 (human)) was “binds”.

For “HA-EGLN1 (in H1299 cells) (from UniProt Q9GZT9 1-426) (enzyme)”, the binding [2] was “binds”.

In the case of Myc-IRF3 (from UniProt Q14653 1-427), the binding [3] is reported as “binds” and the binding (HA-EGLN1 (human)) is reported as “binds”.

For “ectopically expressed IRF3 (Supplementary Fig. 9c-e) (from UniProt Q14653 1-427)”, the binding [4] was “binds”, the binding [5] was “no binding” and the binding [6] was “no binding”.

In the case of “endogenous IRF3 (from UniProt Q14653 1-427)”, the binding [7] is reported as “binds”.
